Measured values reported in patent publication US20130164299A1.
No constants are given. Whether binding was seen depends on the method and setting. Some entries that bind do so weakly or less than the wild type.

Amino acid sequences for entries named in this document (tags omitted). A change or cut given only in a name is not applied to a line headed by its entry.
UniProt Q9UHP7: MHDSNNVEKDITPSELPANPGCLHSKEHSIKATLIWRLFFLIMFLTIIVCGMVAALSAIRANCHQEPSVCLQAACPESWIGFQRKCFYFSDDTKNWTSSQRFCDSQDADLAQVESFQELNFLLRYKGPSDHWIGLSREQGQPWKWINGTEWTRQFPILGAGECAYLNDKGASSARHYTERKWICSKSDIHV

Key:
[1] = target: LLT1-Fc fusion protein (human) (UniProt Q9UHP7); assay: blocking assay by flow cytometry: binding of LLT1-Fc multimers to CD161 on 293T-CD161 cells in the presence of the antibody
[2] = target: LLT1-Fc fusion protein (human) (UniProt Q9UHP7); assay: ELISA, coated LLT1-Fc

B1: anti-LLT14F (antibody, mouse IgG1, V domains shown)
VH: EVQLVESGGGLVQPGGSLKLSCAASGFTVSSYGMSWVRQIPDKRLELVATINSNGGRTFYPDSVKGRFTISRDNAQNTLYLQMSSLKSEDTAMYYCARDGGYWAHFDYWGQGTTLTVSS
VL: DVLMTQTPLSLPVSLGDQASISCRSSQSIVHSNGNTYLEWYLQKPGQSPKLLIYKVSNRFSGVPDRFSGSGSGTDFTLKISRVEAEDLGVYYCFQGSHVPWTFGGGTKLEIKR
With B1 the binding [1] was “binds” and the binding [2] was “binds”.
